Results: PubChem BioAssay AID1347423 (Functional Genomics Laboratory (NCATS/FGL), 2020)
Among all 52,000 sequences or so, about 210 (0.4%) were called active.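 The calls were made as follows: active = gene whose silencing raises cell survival under the drug, median off-target-corrected z-score across its silencing RNAs 2 or more; inactive = the rest.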 This is one part of the list.

experiment: Resistance to Poly (ADP-Ribose) Polymerase inhibitor: Gene Identification via Genome-wide siRNA Screen; conditions: mouse BRCA2 R2336H ES cells, olaparib, CellTiter-Glo viability; stronger effect = higher value
How it was run: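 Mouse BRCA2 R2336H ES cells were reverse-transfected with siRNA (20 nM final), treated at 48 h with 500 nM olaparib, and read by CellTiter-Glo after 72 h. Scores: MAD-based z per siRNA, median per gene, seed off-target correction.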

| Sequence | z-score |
| --- | --- |
| GCAGUGCGUUAUCUACUGATT against Rb1 | inactive: -0.342 |
| GGAGCUGAUUUUCCUAAAGTT against Dcl1 | inactive: 1.4 |
| CCCAGACCAUACUACGGAUTT against Calb2 | inactive: -0.0646 |
| GCUACAUGGAAAGAUACGGTT against Gpr73l1 | inactive: 0.159 |
| GGGUCUACCACAUGUACAUTT against Slc16a6 | inactive: 0.26 |
| GAUCAGAUGUUUGGGACUUTT against Olfr512 | inactive: 1.63 |
| GGUAUUUGAAGAACGAAGATT against Fbxo16 | inactive: -0.283 |
| GCUACGGAACAAUCACAGCTT against Jarid1d | inactive: 0.15 |
| GCUAGUCAAGACCAGUCCGTT against Ttl | inactive: -2.08 |
| GGGAGUGUGAGGUAUGAACTT against Lrrtm4 | inactive: 0.402 |
| GGCGAGAGUAUGAACACUUTT against Evpl | inactive: -0.6 |
| GGUGGAGUGUUAUUAUAGGTT against 1810030N24Rik | inactive: 0.272 |
| CGGCUUCAGGAGAACAUUATT against Mmaa | inactive: -0.563 |
| GGAAGUGUGUACCACAUCUTT against D2Ertd391e | inactive: -0.154 |
| CGAACUGGCCAAGAGUUACTT against Nras | inactive: -0.976 |
| GCCAAUCCCUAUGAGAUGATT against 1300018I05Rik | inactive: 0.537 |
| CGGAAGAACUACAAGUCGATT against 2610511M17Rik | inactive: 0.123 |
| GGAGAUGAUGCCGUCAUUCTT against Chaf1b | inactive: -1.61 |
| GGGUAACAUCCUCAUGACATT against Zfp282 | inactive: 1.79 |
| GGACUUAGAGAGUAUGGACTT against Ctdp1 | inactive: -0.322 |
| GCACGUAUGGUCAACAUCGTT against Rab2b | inactive: 1.07 |
| GCUGAAGCAUACAUUUGUGTT against T2R37 | inactive: 0.00626 |
| GGAAAAGAAGACCUACACCTT against Ppp1r1c | inactive: 0.444 |
| GGAACUGAGGUUUUUAAAGTT against D130072O21Rik | inactive: 0.754 |
| CGAGCAAGCUGACAUCUUUTT against Tbc1d4 | inactive: -0.472 |
| GCUUCAUGGUGGAUUCAGATT against Bai2 | inactive: 0.0149 |

| Sequence | z-score |
| --- | --- |
| GGUAGUACCGUGUUAAGUGTT against Uchl5 | inactive: -0.0494 |
| GGCUUUUCUGAGGAGCACATT against Cbx5 | inactive: 1.92 |
| GGAUUGGUUACCAAAUGGUTT against Mapk6 | inactive: 0.258 |
| CCUAGACGAUGUCAUGAAGTT against Lrrc4b | inactive: 0.916 |
| GGUCUGACCUGUUUGAUCATT against FHOS2 | inactive: 0.752 |
| GGUCUUGUUUCUUGAGACCTT against C130050O18Rik | inactive: 0.341 |
| GCACUCUGCCUGAAAUACCTT against Gm14 | inactive: 0.0126 |
| GGAGCAAAAUUCACAGUCUTT against Bcl7a | inactive: -0.253 |
| GGAUCUAGAUACUUCUAGUTT against 2010004O20Rik | inactive: 0.828 |
| GCACGUUCAGUGCACACCUTT against Nubp1 | inactive: 0.988 |
| GGCCUUAUGUCUUGUAUAUTT against Pip5k1a | inactive: -0.439 |
| GGACACUCAAAAACAACUGTT against A030003A19Rik | inactive: -0.807 |
| GGAGGUAUUCACAAAGAGATT against D13Ertd275e | inactive: -0.0343 |
| GGCAGUUCUUAAGUAAUCATT against 4931440F15Rik | inactive: -2.04 |
| GGUUUAUGCUGUGAAUACATT against Nupl1 | inactive: -0.569 |
| CCAAAAUGGAAUGCUCUUCTT against 6330416L07Rik | inactive: -0.746 |
| CCCAGGCACUUGUUUACAGTT against Stim2 | inactive: 0.00752 |
| GCAUCUAUUGGAUUUACAUTT against Nup153 | inactive: -2.02 |
| CCCACAGAAUCACUCCAAGTT against Utp14a | inactive: -2.29 |
| CCCAUCAUUAGAAUUACUUTT against Vdac2 | inactive: -0.255 |
| CGGGACCUUGUUGAUAACUTT against C130036G08 | inactive: -0.0758 |
| GGACUUUUUUCCAGAUUAUTT against Paip1 | inactive: 0.678 |
| CCUAAGCUUAGAUCAACAUTT against Dhx36 | inactive: 0.964 |
| GGACUUAUGCCGACAGCUUTT against Tnni3 | inactive: -1.18 |
| GGAACUGGAUCAAGAAUUUTT against 2810432O22Rik | inactive: 1.59 |
| GGGUAGAAGAAAACGAUUUTT against Sca7 | inactive: -0.841 |

Fetched one by one from the entries so far (five):

| Sequence | z-score |
| --- | --- |
| GGUAGUACCGUGUUAAGUGTT against Uchl5 | inactive: -0.0494 |
| GGACUUUUUUCCAGAUUAUTT against Paip1 | inactive: 0.678 |
| GGAGGUAUUCACAAAGAGATT against D13Ertd275e | inactive: -0.0343 |
| CCAAAAUGGAAUGCUCUUCTT against 6330416L07Rik | inactive: -0.746 |
| GGCCUUAUGUCUUGUAUAUTT against Pip5k1a | inactive: -0.439 |

Continued.

| Sequence | z-score |
| --- | --- |
| GCUGCACGCACUGAUCAAGTT against Tjp4 | inactive: -0.696 |
| GAAGCUGCACAUCACCAGCTT against BC022623 | inactive: -0.52 |
| GCUUGAUCUUGCAUUUGGUTT against Smyd3 | inactive: -0.219 |
| GGAGGGUCUCCUAAUUUUUTT against Kdelr1 | inactive: 0.29 |
| GGACUAAGCAGACCAUACATT against 9630033F20Rik | inactive: 0.000304 |
| GGAUAAUUGCUCAAGCCUGTT against Serac1 | inactive: -1.65 |
| GGAACUUUAGUUUGCGUAUTT against Emp2 | inactive: 0.236 |
| GGAUUCAGUCAAGAAUUUGTT against Dhx29 | inactive: 1.59 |
| GCAUUUAAUCCUGCACUCCTT against Lrp10 | inactive: 1.28 |
| GGUACCAUUAGUGGAGUCCTT against Hoxb9 | inactive: -0.482 |
| GGCAAAGGAUCCAAGUUUGTT against 2310075C12Rik | inactive: 0.795 |
| GGAUUCUGAGUGUACGUUUTT against 2810438M17Rik | inactive: -1.61 |
| CCCUCUACAAUAAGAUGCATT against Rusc2 | inactive: -0.879 |
| CCAUAUCCCUGGACUAGAGTT against Pglyrp4 | inactive: 1.33 |
| GGCCUCAAGCAGACUUUGATT against Myo9b | inactive: -1.14 |
| GGCACGAUGAGCUCUCCUATT against Cstb | inactive: -2.52 |
| GCAUAAAUUUCAAGAGCGCTT against Perq1 | inactive: -0.74 |
| GGAGAAGCCAGGAGUUUACTT against Prss18 | inactive: 0.614 |
| CCAUAGAACAAGCUACACCTT against Cd160 | inactive: -0.631 |
| GGUGAAAGUUUACCUUCGATT against Kif20a | inactive: -1.18 |
| CGUACCUAAGCAUACCAGCTT against Gpr20 | inactive: -0.118 |
| GGGACAAGUUGGAUUCUUGTT against Paf53 | inactive: -1.79 |
| GGGUGACUGAACUUAGAAATT against Cd209c | inactive: -1.1 |
| GCAGAUCAGAGACAGAGUUTT against Olfr582 | inactive: -2.56 |
| GGUUUACAAGAGUUACAGUTT against Brpf1 | inactive: 1 |
| GGUGAUGGUUGGGUUUCUCTT against Olfr1449 | inactive: 0.438 |

| Sequence | z-score |
| --- | --- |
| GGAAUUCUCCUUCCUCACUTT against Cyp21a1 | inactive: 0.0382 |
| GGAACUGGACAAGGACGAUTT against Arhgdia | inactive: 0.486 |
| GGAAUUAUCGCAUCUUUGATT against Sh3bp2 | inactive: 0.929 |
| GGAUGCAGUACGAAAUUCUTT against Psmd1 | inactive: -2.63 |
| GGACCUGACAGUUCAAAAATT against Dars | inactive: -1.16 |
| GGCCCUCACCAUCUUUUGGTT against Olfr691 | inactive: 0.105 |
| GCUGGACCCACACAAAAAGTT against Rhbdl4 | inactive: 0.35 |
| GCCAUGAUGCAUUAUGUAUTT against 6720416L17Rik | inactive: -0.231 |
| GGCUUUCUGGAAGAUACUUTT against Hrh4 | inactive: -0.527 |
| GGUGCUUGAUUUUGUGCAGTT against Psmd13 | inactive: -2.95 |
| GCCAAGGUGCAGAUAAGGUTT against Rhox7 | inactive: 0.0271 |
| GGAACAUGUCUUCAAGAGATT against Stac2 | inactive: -0.00531 |
| GGAAGGAGAGGAAAUUAAATT against Nrg3 | inactive: 0.987 |
| GGCCCAAGUGACUAAGAACTT against Tgm1 | inactive: 1.84 |
| GGUGCUAAGAAAAUCAAAGTT against Ryr2 | inactive: -0.251 |
| GCUGGUGAAGAGCAUAUUCTT against Tcfcp2 | inactive: 0.54 |
| GGGAAUCACAAGAGAAACATT against 1700052K11Rik | inactive: -1.06 |
| GGAUAAACAGCUGAAGGUGTT against Ccs | inactive: 0.97 |
| GGAGAAGGAGCAGAUUAAATT against Krt2-8 | inactive: 3.19 |
| GGUCCCAUCUUUGCUUUGATT against Tbl1x | inactive: -1.66 |
| GGCGCAGUACUAAAGACAGTT against 3110049J23Rik | inactive: -2.32 |
| GGGAAUUUUGAAAAGGCUGTT against 3632410F03Rik | inactive: 0.39 |
| UCAAGAAAGGUCAUGUCAGTT against Stdp1 | inactive: -0.804 |
| GGCCAAAGGACUGAUCAUCTT against AU042671 | inactive: -0.912 |
| GGAGGAGUUGCUAUUAGACTT against Lin28b | inactive: 0.226 |
| GCACUUCAAUGAGCGAGAATT against Mknk1 | inactive: 0.00962 |
